Source: patent US20260193365A1 (GRANITE BIO, published 2026)
No constants are given. Whether binding was seen depends on the method and setting. Some results given as binding are weak or reduced against the parent protein; the word gives no strength.

Target: human CCR2 (human)
Assay: cell binding, primary human monocytes

binding: binds
B1: DOC2-ChXRKA (antibody, human IgG1, kappa, V domains shown)
VH: EVQLVESGGGLVKPGGSLKLSCVASGFTLSNYAMSWVRQSPEKRLEWVAEVSSSGIYIYYSDTVTGRFSISRDNAKNTLYLEMSSLRSEDTAIYYCARDRYAYAMDYWGHGTSVIVSS
VL: DIVMTQSPDSLAVSLGERATINCKSSQSLLNSYNQKNSLAWYQQKPGQPPKLLIYFASTRESGVPDRFSGSGSGTDFTLTISSLQAEDVAVYYCQQHYSNPRTFGGGTKLEIKR
